Plain letter strings leave the end groups untold.

This data set can be described thus: peptide synthesis. Particulars: whole synthesis, head-to-tail ring, sequence written open.
GAAGAGLTFIFRLRKGRMMDVKKAG: the outcome is “Synthesis failed”. LTFIFRLRKGRMMDVKKAG: the outcome was “Synthesis failed”.

Regarding LTFIFRLRKGRMMDVKKAGGAAG, the outcome is recorded as “Synthesis failed”.

Values taken from patent publication US20240117005A1 (THE COUNCIL OF THE QUEENSLAND INSTITUTE OF MEDICAL RESEARCH, priority 2021, published 2024).
